Data as given in article PMC5996148.
Several values for one entry are separate records, joined by “and”; a condition that tells them apart may be missing. Equal values may be shown once. The list shows a part of the results. For some of these results: The exact form of the protein is not confirmed.

Protein sequences, listed by entry. Tags and fused reporters are not part of them. Lines headed by an entry give the natural chain unless they say otherwise; changes in a name come on top.
UniProt Q8NC51: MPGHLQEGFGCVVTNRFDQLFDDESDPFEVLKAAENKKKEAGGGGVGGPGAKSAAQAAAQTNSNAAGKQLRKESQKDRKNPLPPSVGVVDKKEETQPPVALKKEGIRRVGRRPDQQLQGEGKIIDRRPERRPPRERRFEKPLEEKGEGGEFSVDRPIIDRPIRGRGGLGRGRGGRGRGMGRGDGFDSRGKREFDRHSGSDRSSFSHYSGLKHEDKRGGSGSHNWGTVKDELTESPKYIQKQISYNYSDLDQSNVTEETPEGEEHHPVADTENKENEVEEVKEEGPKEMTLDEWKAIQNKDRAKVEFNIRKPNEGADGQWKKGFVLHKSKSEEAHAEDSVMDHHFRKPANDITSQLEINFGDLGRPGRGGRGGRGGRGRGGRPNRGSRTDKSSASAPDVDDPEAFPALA

Assays:
Assay in all cases: protein microarray (ProtoArray v5.0), streptavidin-Alexa Fluor 647
Settings in all cases: 3'-biotin; 20 mM Tris (pH 7.5), 5 mM MgCl2, 100 mM KCl, 0.1% Tween-20, A/T-rich and random oligonucleotide blockers; temperature not stated; high values mean tight binding
SDSL (human) = test system: SDSL (human)
SEC13L1 (human) = test system: SEC13L1 (human)
SELPLG (human) = test system: SELPLG (human)
SENP8 (human) = test system: SENP8 (human)
SEPHS2 (human) = test system: SEPHS2 (human)
SEPT11 (human) = test system: SEPT11 (human)
SEPT4 (human) = test system: SEPT4 (human)
SEPT6 (human) = test system: SEPT6 (human)
SEPT9 (human) = test system: SEPT9 (human)
SERBP1 = SERBP1 (UniProt Q8NC51)

**Q.** For “GGGGACAGGGGTATGGGGAGGGG [G4-3 biotinylated (CtG)]”, which binding signal (SDSL (human)) is on record?
**A.** -0.325 z-score

**Q.** What about the binding signal (SEC13L1 (human)) of the same sequence?
**A.** -0.34 z-score

**Q.** And the binding signal (SELPLG (human))?
**A.** -0.337 z-score

**Q.** And the binding signal (SENP8 (human))?
**A.** -0.348 z-score

**Q.** What about the binding signal (SEPHS2 (human)) of the same sequence?
**A.** -0.337 z-score

**Q.** What about the binding signal (SEPT11 (human)) of the same sequence?
**A.** -0.337 z-score

**Q.** What about the binding signal (SEPT4 (human)) of the same sequence?
**A.** -0.3 z-score

**Q.** What about the binding signal (SEPT6 (human)) of the same sequence?
**A.** -0.326 z-score

**Q.** And the binding signal (SEPT9 (human))?
**A.** -0.327 z-score

**Q.** What about the binding signal (SERBP1) of the same sequence?
**A.** 3.4 z-score and 3.76 z-score
